Data on 28 molecules can be found in the supplement of paper PMC11348887.

Where a name gives a salt, the structure may show the parent alone. The list shows a part of the results. Small differences around the control level are noise. Where a SMILES comes first, the peptide text is derived from it. The star is where a group is joined. Cbz = O=C(OCc1ccccc1)*

What all share (settings): 5 µM; treatment: days 7-14 after plating, readout day 21
Experiment [1] deals with hPSC-derived cortical neurons (WA09). As to the kind of experiment: nucleus area z-score vs screen plate; higher = larger nuclei (more mature).
For experiment [2] the test system is unchanged. The experiment in a line: total neurite length per nucleus (MAP2) z-score; higher = more neurite growth.
The test system is the same in experiment [3]. As to the kind of experiment: nucleus roundness z-score vs screen plate; higher = rounder nuclei (more mature).
Experiment [4] has the same test system. The experiment in a line: KCl-induced FOS+/EGR-1+ double-positive nuclei fraction z-score (KCl minus unstimulated); higher = stronger activity-induced IEG response.

In turn, `CCN(CC)CCNC(=O)c1cc(Cl)c(N)cc1OC` [MetoclopraMide HCl] showed a nucleus area z-score in experiment [1] of 1.37. The “total neurite length per nucleus (z-score)” value in experiment [2] worked out at 0.217. In experiment [3], the nucleus roundness z-score is -0.385. In addition, the “KCl-induced FOS+/EGR-1+ double-positive nuclei fraction z-score” value in experiment [4] was -0.217.
As to `Cc1cn([C@H]2C=C[C@@H](CO)O2)c(=O)[nH]c1=O` [Stavudine (d4T)], the nucleus area z-score in experiment [1] turned out to be 0.917. Further, in experiment [2], the “total neurite length per nucleus (z-score)” value was 0.6. Besides, the nucleus roundness z-score in experiment [3] came to 0.363. In addition, in experiment [4], the “KCl-induced FOS+/EGR-1+ double-positive nuclei fraction z-score” value is 1.33.
In experiment [1], `CC(C)Nc1cc(-c2c[nH]c(C(=O)N[C@H](CO)c3cccc(Cl)c3)c2)c(Cl)cn1` gave a nucleus area z-score of -0.216. In experiment [2], the “total neurite length per nucleus (z-score)” value is -0.775. In experiment [3], this molecule yielded a nucleus roundness z-score of -0.411. In addition, in experiment [4], the “KCl-induced FOS+/EGR-1+ double-positive nuclei fraction z-score” value is -1.62.
In turn, `C=CC(=O)Nc1cccc(Oc2nc(Nc3ccc(N4CCN(C)CC4)cc3OC)ncc2Cl)c1` showed a nucleus area z-score in experiment [1] of -0.24. The “total neurite length per nucleus (z-score)” value in experiment [2] is 0.145. This molecule also gave a nucleus roundness z-score in experiment [3] of 0.933. The “KCl-induced FOS+/EGR-1+ double-positive nuclei fraction z-score” value in experiment [4] was 0.428.
Regarding `CC(C)C[C@@H](C=O)NC(=O)[C@H](CC(C)C)NC(=O)[C@H](CC(C)C)NC(=O)OCc1ccccc1` (Cbz-Leu-Leu-Leu-aldehyde), the nucleus area z-score in experiment [1] was -15.4. Moreover, the “total neurite length per nucleus (z-score)” value in experiment [2] was -5.54. In experiment [3], this molecule gave a nucleus roundness z-score of 0.0165. Besides, the “KCl-induced FOS+/EGR-1+ double-positive nuclei fraction z-score” value in experiment [4] is -0.373.
The matching figures for `CNCCc1ccccn1` [Betahistine 2HCl]: -0.505, 1.49, 0.634 and 1.85.
In turn, `CN1CCN(c2ccc3nc(-c4c(N)c5c(F)cccc5[nH]c4=O)[nH]c3c2)CC1` [Dovitinib (TKI-258_ CHIR-258)] returned a nucleus area z-score in experiment [1] of -4.64. The “total neurite length per nucleus (z-score)” value in experiment [2] is -2.45. This molecule also yielded a nucleus roundness z-score in experiment [3] of -5.14. For the same molecule, the “KCl-induced FOS+/EGR-1+ double-positive nuclei fraction z-score” value in experiment [4] was -0.13.
As to `CCOC(=O)c1c(C)n(C)c2ccc(O)cc12` [Mecarbinate], the nucleus area z-score in experiment [1] stood at 0.0897. In addition, the “total neurite length per nucleus (z-score)” value in experiment [2] was found to be 0.07. The molecule also came in with a nucleus roundness z-score in experiment [3] of -0.178. The “KCl-induced FOS+/EGR-1+ double-positive nuclei fraction z-score” value in experiment [4] is -0.645.
On to `COc1ccc(-c2ccc3c(N4CCOCC4)nc(N4C[C@@H](C)O[C@@H](C)C4)nc3n2)cc1CO`, for which the nucleus area z-score in experiment [1] came out at 1.17. In experiment [2], the “total neurite length per nucleus (z-score)” value amounted to 0.66. This molecule also displayed a nucleus roundness z-score in experiment [3] of 0.0178. The “KCl-induced FOS+/EGR-1+ double-positive nuclei fraction z-score” value in experiment [4] was -0.274.
In the same order, the values of `CC1=C(C(=O)O)N2C(=O)[C@@H](NC(=O)[C@H](N)C3=CCC=CC3)[C@H]2SC1` [Cefradine] are 0.26, 1.2, 1.03 and 0.512.
In the same order, the values of `COc1ccc(CNc2nc(N3CCC[C@H]3CO)ncc2C(=O)NCc2ncccn2)cc1Cl` [Avanafil] are -0.441, 0.645, 0.216 and 0.226.
The matching figures for `CC1(C)[C@H](C(=O)O)N2C(=O)C[C@H]2S1(=O)=O` [Sulbactam]: 0.0954, -0.429, 0.35 and -1.38.
With `NC(=O)c1cn(Cc2c(F)cccc2F)nn1` [Rufinamide], the nucleus area z-score in experiment [1] stood at 0.897. Besides, the “total neurite length per nucleus (z-score)” value in experiment [2] was found to be 0.116. Further, in experiment [3], the nucleus roundness z-score turned out to be 0.186. Besides, the “KCl-induced FOS+/EGR-1+ double-positive nuclei fraction z-score” value in experiment [4] stood at 0.366.
Take `C[C@@H]1C[C@H]2[C@@H]3CCC4=CC(=O)C=C[C@]4(C)[C@@]3(Cl)[C@@H](O)C[C@]2(C)[C@@]1(OC(=O)c1ccco1)C(=O)CCl` [Mometasone furoate]: the nucleus area z-score in experiment [1] is 0.652. In addition, the “total neurite length per nucleus (z-score)” value in experiment [2] is -0.876. This molecule came in with a nucleus roundness z-score in experiment [3] of -0.946. The “KCl-induced FOS+/EGR-1+ double-positive nuclei fraction z-score” value in experiment [4] is -0.944.
In the case of `O=C(O)c1cn(-c2ccc(F)cc2)c2cc(N3CCNCC3)c(F)cc2c1=O` [Sarafloxacin HCl], in experiment [1], the nucleus area z-score is -0.55. Moreover, the “total neurite length per nucleus (z-score)” value in experiment [2] came out at 0.816. For the same molecule, the nucleus roundness z-score in experiment [3] was determined as 1.11. The “KCl-induced FOS+/EGR-1+ double-positive nuclei fraction z-score” value in experiment [4] was 0.833.
The matching figures for `NCCS` [Cysteamine HCl]: 0.00911, -0.304, -0.31 and -1.54.
The molecule `NC[C@H]1CC[C@H](C(=O)O)CC1` [Tranexamic Acid] displayed a nucleus area z-score in experiment [1] of 0.372. In addition, the “total neurite length per nucleus (z-score)” value in experiment [2] was found to be 0.565. The same molecule came in with a nucleus roundness z-score in experiment [3] of 0.457. Besides, the “KCl-induced FOS+/EGR-1+ double-positive nuclei fraction z-score” value in experiment [4] was -0.175.
The molecule `O=C(NS(=O)(=O)c1ccc(Br)s1)c1ccc(Cl)cc1Cl` [Tasisulam] came in with a nucleus area z-score in experiment [1] of 1.44. In addition, the “total neurite length per nucleus (z-score)” value in experiment [2] is -0.319. In experiment [3], this molecule displayed a nucleus roundness z-score of -0.498. The “KCl-induced FOS+/EGR-1+ double-positive nuclei fraction z-score” value in experiment [4] stood at 0.123.
Regarding `Cc1cnc(Nc2ccc(OCCN3CCCC3)cc2)nc1Nc1cccc(S(=O)(=O)NC(C)(C)C)c1`, in experiment [1], the nucleus area z-score is -5.12. For the same molecule, in experiment [2], the “total neurite length per nucleus (z-score)” value was -1.25. Moreover, the nucleus roundness z-score in experiment [3] was -3.69. The “KCl-induced FOS+/EGR-1+ double-positive nuclei fraction z-score” value in experiment [4] was -3.4.
The matching figures for `O=C1C[C@@H](c2ccc(O)cc2)Oc2cc(O)cc(O)c21` [Naringenin]: 0.187, 0.299, 1.29 and 1.6.
Molecule `OC[C@H]1O[C@@H](Oc2cc(O)cc(/C=C/c3ccc(O)cc3)c2)[C@H](O)[C@@H](O)[C@@H]1O` [Polydatin] registered a nucleus area z-score in experiment [1] of -0.292. The “total neurite length per nucleus (z-score)” value in experiment [2] was 0.301. In experiment [3], this molecule displayed a nucleus roundness z-score of -0.181. Besides, the “KCl-induced FOS+/EGR-1+ double-positive nuclei fraction z-score” value in experiment [4] is 0.0571.
`CCS(=O)(=O)N1CCN(c2ccc(Nc3ncc(C(N)=O)c(NC4CC4)n3)cc2)CC1` showed a nucleus area z-score in experiment [1] of 5.24. In experiment [2], the “total neurite length per nucleus (z-score)” value amounted to 5.17. Besides, in experiment [3], the nucleus roundness z-score came to 1.7. Also, the “KCl-induced FOS+/EGR-1+ double-positive nuclei fraction z-score” value in experiment [4] was 0.683.
Regarding `NC(=O)OCC(COC(N)=O)c1ccccc1` [Felbamate], the nucleus area z-score in experiment [1] was determined as 0.0208. Moreover, the “total neurite length per nucleus (z-score)” value in experiment [2] was -0.242. Further, the nucleus roundness z-score in experiment [3] was -0.00571. Also, the “KCl-induced FOS+/EGR-1+ double-positive nuclei fraction z-score” value in experiment [4] was found to be 1.49.
In the same order, the values of `COC(=O)C1=C(C)NC(C)=C([N+](=O)[O-])C1c1ccccc1C(F)(F)F` (configuration not stated) are 4.74, 0.192, 0.0703 and 1.97.
For `O=C(Nc1cccnc1)N1CCC(Cc2cccc(Oc3ccc(C(F)(F)F)cn3)c2)CC1`, the nucleus area z-score in experiment [1] is 1.25. Moreover, the “total neurite length per nucleus (z-score)” value in experiment [2] is -0.311. The molecule further yielded a nucleus roundness z-score in experiment [3] of -0.312. The “KCl-induced FOS+/EGR-1+ double-positive nuclei fraction z-score” value in experiment [4] amounted to 0.146.
In the same order, the values of `CO[C@H]1CC[C@H](N2C(=O)CNc3ncc(-c4ccc(C(C)(C)O)nc4)nc32)CC1` are -6.78, -2.22, -2.24 and -0.75.
For the molecule `N#C[C@@H]1C[C@@H]2C[C@@H]2N1C(=O)[C@@H](N)C12CC3CC(CC(O)(C3)C1)C2` [Saxagliptin], the nucleus area z-score in experiment [1] turned out to be 1.22. Besides, the “total neurite length per nucleus (z-score)” value in experiment [2] stood at 0.21. For the same molecule, the nucleus roundness z-score in experiment [3] came to 0.129. The “KCl-induced FOS+/EGR-1+ double-positive nuclei fraction z-score” value in experiment [4] is -0.0409.
As to `CCCNC(C)C(=O)Nc1ccccc1C` (configuration not stated) [Prilocaine], the nucleus area z-score in experiment [1] worked out at 0.137. Also, the “total neurite length per nucleus (z-score)” value in experiment [2] stood at 0.598. Moreover, the nucleus roundness z-score in experiment [3] was -0.327. In addition, the “KCl-induced FOS+/EGR-1+ double-positive nuclei fraction z-score” value in experiment [4] is 1.6.
